Where a name gives a salt, the structure may show the parent alone. The list shows a part of the results. This is a noisy data set.
The molecules below were run on Peyronie's disease tunica albuginea primary fibroblasts (assay: cell viability (DRAQ5 nuclear stain) relative to TGF-beta1-only control; higher = more viable cells). Details: 10 µM; TGF-beta1 10 ng/mL; 72 h.

SMILES | cell viability
O=C1c2cccc(O)c2C(=O)c2c(O)cccc21 [Danthron] | 86.2%
CCOC(N)=O [Urethane] | 84.6%
Cc1c(C(=O)Nc2ccc(N3C[C@@H](C)O[C@@H](C)C3)nc2)cccc1-c1ccc(OC(F)(F)F)cc1 [Sonidegib (Erismodegib, NVP-LDE225)] | 88%
CCOC(CN1CCN(CC(C)C(=O)c2ccccc2)CC1)c1ccccc1 (stereo not drawn) [Eprazinone 2HCl] | 94.9%
OCC(CO)N[C@H]1C[C@](O)(CO)[C@@H](O)[C@H](O)[C@H]1O [Voglibose] | 91.8%
Cc1ccc(Nc2nccc(N(C)c3ccc4c(C)n(C)nc4c3)n2)cc1S(N)(=O)=O [Pazopanib] | 72.8%
Cc1ccc(Nc2nccc(N(C)c3ccc4c(C)n(C)nc4c3)n2)cc1S(N)(=O)=O | 81%
COc1cc(Nc2ncc3c(n2)-c2ccc(Cl)cc2C(c2c(F)cccc2OC)=NC3)ccc1C(=O)O [Alisertib (MLN8237)] | 72.1%
CCCCC(=O)N(Cc1ccc(-c2ccccc2-c2nnn[nH]2)cc1)[C@H](C(=O)O)C(C)C [Valsartan] | 87.8%
C[C@H](CCC(=O)O)[C@H]1CC[C@H]2[C@@H]3C(=O)C[C@@H]4CC(=O)CC[C@]4(C)[C@H]3CC(=O)[C@]12C [Dehydrocholic acid] | 92.8%
CO[C@H]1C[C@H](O[C@@H]2/C(C)=C/C[C@@H]3C[C@@H](C[C@]4(CC[C@H](C)[C@@H](C5CCCCC5)O4)O3)OC(=O)[C@@H]3C=C(C)/C(=N/O)[C@H]4OC/C(=C\C=C\[C@@H]2C)[C@]43O)O[C@@H](C)[C@@H]1O [Selamectin] | 67.9%
O=C1c2c(O)ccc(O)c2C(=O)c2c(NCCNCCO)ccc(NCCNCCO)c21 [Mitoxantrone 2HCl] | 90.8%
O=C(NC(Cc1cc(=O)[nH]c2ccccc12)C(=O)O)c1ccc(Cl)cc1 (stereo not drawn) [Rebamipide] | 90.6%
COC(=O)/C=C/C(=O)OC [Dimethyl Fumarate] | 93%
C[N+](C)(C)CCOC(N)=O [Carbachol] | 96.2%
CN(C)CCc1c[nH]c2ccc(CS(=O)(=O)N3CCCC3)cc12 [Almotriptan Malate] | 92%
CC(C)C[C@H](NC(=O)[C@@H](Cc1cccc2ccccc12)NC(=O)[C@H](Cc1ccc(O)cc1)NC(=O)[C@H](CO)NC(=O)[C@H](Cc1c[nH]c2ccccc12)NC(=O)[C@H](Cc1cnc[nH]1)NC(=O)[C@@H]1CCC(=O)N1)C(=O)N[C@@H](CCCNC(=N)N)C(=O)N1CCC[C@H]1C(=O)NCC(N)=O [Nafarelin Acetate] | 101%
O=C(O)CCC(=O)c1ccc(-c2ccccc2)cc1 [Fenbufen] | 93.6%
CCCCc1ncc(/C=C(\Cc2cccs2)C(=O)O)n1Cc1ccc(C(=O)O)cc1 [Eprosartan Mesylate] | 93.3%
CN1CCN2c3ccccc3Cc3ccccc3C2C1 (stereo not drawn) [Mianserin HCl] | 97.1%
CCCCCCCCOc1ccccc1C(=O)Nc1ccc(C(=O)OCC[N+](C)(CC)CC)cc1 [Otilonium Bromide] | 98.5%
CCNC1(C(N)=O)CCN(c2ncnc3c2nc(-c2ccccc2Cl)n3-c2ccc(Cl)cc2)CC1 | 89.1%
CCOC(=O)CC(=O)N1CCSC1COc1ccccc1OC (stereo not drawn) [Moguisteine] | 85.3%
CC(=O)Oc1ccc(C(c2ccc(OC(C)=O)cc2)c2ccccn2)cc1 [Bisacodyl] | 87.7%
O=[N+]([O-])c1ccc(O)c2ncccc12 [Nitroxoline] | 83.3%

A portion of the results above, for reference:
SMILES | cell viability
CN(C)CCc1c[nH]c2ccc(CS(=O)(=O)N3CCCC3)cc12 [Almotriptan Malate] | 92%
CC(C)C[C@H](NC(=O)[C@@H](Cc1cccc2ccccc12)NC(=O)[C@H](Cc1ccc(O)cc1)NC(=O)[C@H](CO)NC(=O)[C@H](Cc1c[nH]c2ccccc12)NC(=O)[C@H](Cc1cnc[nH]1)NC(=O)[C@@H]1CCC(=O)N1)C(=O)N[C@@H](CCCNC(=N)N)C(=O)N1CCC[C@H]1C(=O)NCC(N)=O [Nafarelin Acetate] | 101%

Additional records follow:

SMILES | cell viability
N#CC[C@H](C1CCCC1)n1cc(-c2ncnc3[nH]ccc23)cn1 | 95.2%
N#CC[C@H](C1CCCC1)n1cc(-c2ncnc3[nH]ccc23)cn1 [Ruxolitinib Phosphate] | 86.9%
NNC(=O)c1ccncc1.Nc1ccc(C(=O)O)c(O)c1 [Pasiniazid] | 87.6%
CCCc1nn(C)c2c(=O)[nH]c(-c3cc(S(=O)(=O)N4CCN(C)CC4)ccc3OCC)nc12 [Sildenafil] | 73.1%
CCCc1nn(C)c2c(=O)[nH]c(-c3cc(S(=O)(=O)N4CCN(C)CC4)ccc3OCC)nc12 [Sildenafil Citrate] | 91.1%
CCCc1nn(C)c2c(=O)[nH]c(-c3cc(S(=O)(=O)N4CCN(C)CC4)ccc3OCC)nc12 [Sildenafil Mesylate] | 95.5%
CCC1(C)CC(=O)NC1=O (stereo not drawn) [Ethosuximide] | 83.5%
C[C@H](Nc1ncnc2nc[nH]c12)c1cc2cccc(Cl)c2c(=O)n1-c1ccccc1 [Duvelisib (IPI-145, INK1197)] | 62.7%
CC(NCCc1ccc(O)cc1)C(O)c1ccc(O)cc1 (stereo not drawn) [Ritodrine HCl] | 89.9%
C[N+](C)(CCOc1ccccc1)Cc1ccccc1.O=C([O-])c1cc2ccccc2cc1O [Bephenium Hydroxynaphthoate] | 86.4%
CCc1nn(CCCN2CCN(c3cccc(Cl)c3)CC2)c(=O)n1CCOc1ccccc1 [Nefazodone hydrochloride] | 106%
O=C(c1ccc(F)c(F)c1Nc1ccc(I)cc1F)N1CC(O)([C@@H]2CCCCN2)C1 [Cobimetinib (GDC-0973, RG7420)] | 64.9%
Cc1cn(-c2cc(NC(=O)c3ccc(C)c(Nc4nccc(-c5cnccn5)n4)c3)cc(C(F)(F)F)c2)cn1 [Radotinib] | 101%
CC(C)[C@H](O)C(=O)N[C@@H](C)C(=O)N[C@@H]1C(=O)N(C)CCc2ccccc21 | 69.8%
Nc1nc(/C(=C/CC(=O)O)C(=O)N[C@@H]2C(=O)N3C(C(=O)O)=CCS[C@H]23)cs1 [Ceftibuten dihydrate] | 85.9%
Nc1ccc(/N=N/c2ccccc2)c(N)n1 [Phenazopyridine HCl] | 75.1%
CN1CCC(=C2c3ccccc3CCn3c(C=O)cnc32)CC1 [Alcaftadine] | 83.8%
CCC(=O)O[C@]1(C(=O)SCF)[C@H](C)C[C@H]2[C@@H]3C[C@H](F)C4=CC(=O)C=C[C@]4(C)[C@@]3(F)[C@@H](O)C[C@@]21C [Fluticasone propionate] | 77%
O=C(O)c1ccccc1Nc1cccc(C(F)(F)F)c1 [Flufenamic acid] | 75.5%
Cc1cccc(C)c1OCC(=O)N[C@@H](Cc1ccccc1)[C@@H](O)C[C@H](Cc1ccccc1)NC(=O)[C@H](C(C)C)N1CCCNC1=O [Lopinavir] | 97.3%
O=C1O[C@H]([C@@H](O)CO)C(O)=C1O [Vitamin C] | 81.6%
Clc1ccc(C(c2ccccc2Cl)C(Cl)Cl)cc1 (stereo not drawn) [Mitotane] | 98.3%
CCCCN1CCCC[C@H]1C(=O)Nc1c(C)cccc1C [Levobupivacaine HCl] | 88.4%
O=C1Nc2ccc(Cl)cc2[C@@](C#CC2CC2)(C(F)(F)F)O1 [Efavirenz] | 90.3%
Nc1ccc(C(=O)O)c(O)c1 [Sodium 4-Aminosalicylate] | 91.4%

SMILES | cell viability
CC(C)C(=O)c1c(C(C)C)nn2ccccc12 [Ibudilast] | 94.2%
CC(=O)NC(CC(C)C)C(=O)O (stereo not drawn) [Acetylleucine] | 94.5%
CCS(=O)(=O)N1CCN(c2ccc(Nc3ncc(C(N)=O)c(NC4CC4)n3)cc2)CC1 | 80.5%
C[N+](C)(C)C[C@H](O)CC(=O)[O-] [L-carnitine] | 93%
OC(CCN1CCCC1)(c1ccccc1)C1CCCCC1 (stereo not drawn) [Procyclidine HCl] | 87.2%
CC(CN(C)C)CN1c2ccccc2CCc2ccccc21 (stereo not drawn) [Trimipramine Maleate] | 84.5%
CCCCOc1ccc(C(=O)CCN2CCCCC2)cc1 [Dyclonine HCl] | 98.3%
Cn1nnc2c(C(N)=O)ncn2c1=O [Temozolomide] | 97.8%
CC(C)(C)NC(=O)[C@H]1CC[C@H]2[C@@H]3CC[C@H]4NC(=O)C=C[C@]4(C)[C@H]3CC[C@]12C [Finasteride] | 77.1%
C=CC[N+]1([C@H]2C[C@H]3[C@@H]4CC[C@H]5C[C@H](O)[C@@H](N6CCOCC6)C[C@]5(C)[C@H]4CC[C@]3(C)[C@H]2OC(C)=O)CCCC1 [Rocuronium Bromide] | 102%
C=C1CC[C@H](O)C/C1=C/C=C1\CCC[C@]2(C)[C@@H]([C@H](C)/C=C/[C@H](C)C(C)C)CC[C@@H]12 [Vitamin D2] | 73.9%
Nc1nc(N)c2nc(-c3ccccc3)c(N)nc2n1 [Triamterene] | 94.7%
Cc1c(Nc2ncccc2C(=O)O)cccc1C(F)(F)F [Flunixin Meglumin] | 85.5%
CC[C@H](c1ccc(O)cc1)[C@@H](CC)c1ccc(O)cc1 [Hexestrol] | 93.7%
OC[C@@H](O)CN1CCN(c2ccccc2)CC1 [Levodropropizine] | 95.7%
N#CC1(c2ccc(NC(=O)c3cccnc3NCc3ccncc3)cc2)CCCC1 | 83%
CC(=O)OCC(=O)[C@@]1(O)CC[C@H]2[C@@H]3CCC4=CC(=O)C=C[C@]4(C)[C@H]3[C@@H](O)C[C@@]21C [Prednisolone Acetate] | 77.3%
COC(=O)N[C@H](C(=O)N1CC2(CC2)C[C@H]1c1nc(-c2ccc3c(c2)C(F)(F)c2cc(-c4ccc5[nH]c([C@@H]6[C@H]7CC[C@H](C7)N6C(=O)[C@@H](NC(=O)OC)C(C)C)nc5c4)ccc2-3)c[nH]1)C(C)C [Ledipasvir (GS5885)] | 76.9%
COc1ccc(CNc2nc(N3CCC[C@H]3CO)ncc2C(=O)NCc2ncccn2)cc1Cl [Avanafil] | 96.4%
CN(Cc1cc(Br)cc(Br)c1N)C1CCCCC1 [Bromhexine HCl] | 92%
NCCc1ccc(O)c(O)c1 [Dopamine HCl] | 118%
COc1ccc(-c2ccc3cc(C(=O)O)ccc3c2)cc1C12CC3CC(CC(C3)C1)C2 [Adapalene] | 38.1%
CCN1CCCC1CNC(=O)c1cc(S(N)(=O)=O)ccc1OC (stereo not drawn) [Sulpiride] | 90.6%

Given comma-delimited: entries from further up
SMILES,cell viability
CC(C)C(=O)c1c(C(C)C)nn2ccccc12 [Ibudilast],94.2%
CC(=O)NC(CC(C)C)C(=O)O (stereo not drawn) [Acetylleucine],94.5%
CCS(=O)(=O)N1CCN(c2ccc(Nc3ncc(C(N)=O)c(NC4CC4)n3)cc2)CC1,80.5%
C[N+](C)(C)C[C@H](O)CC(=O)[O-] [L-carnitine],93%
OC(CCN1CCCC1)(c1ccccc1)C1CCCCC1 (stereo not drawn) [Procyclidine HCl],87.2%
CC(CN(C)C)CN1c2ccccc2CCc2ccccc21 (stereo not drawn) [Trimipramine Maleate],84.5%
CCCCOc1ccc(C(=O)CCN2CCCCC2)cc1 [Dyclonine HCl],98.3%
Cn1nnc2c(C(N)=O)ncn2c1=O [Temozolomide],97.8%
CC(C)(C)NC(=O)[C@H]1CC[C@H]2[C@@H]3CC[C@H]4NC(=O)C=C[C@]4(C)[C@H]3CC[C@]12C [Finasteride],77.1%
C=CC[N+]1([C@H]2C[C@H]3[C@@H]4CC[C@H]5C[C@H](O)[C@@H](N6CCOCC6)C[C@]5(C)[C@H]4CC[C@]3(C)[C@H]2OC(C)=O)CCCC1 [Rocuronium Bromide],102%
C=C1CC[C@H](O)C/C1=C/C=C1\CCC[C@]2(C)[C@@H]([C@H](C)/C=C/[C@H](C)C(C)C)CC[C@@H]12 [Vitamin D2],73.9%
Nc1nc(N)c2nc(-c3ccccc3)c(N)nc2n1 [Triamterene],94.7%
Cc1c(Nc2ncccc2C(=O)O)cccc1C(F)(F)F [Flunixin Meglumin],85.5%
CC[C@H](c1ccc(O)cc1)[C@@H](CC)c1ccc(O)cc1 [Hexestrol],93.7%
OC[C@@H](O)CN1CCN(c2ccccc2)CC1 [Levodropropizine],95.7%
N#CC1(c2ccc(NC(=O)c3cccnc3NCc3ccncc3)cc2)CCCC1,83%

— the supplement of paper PMC9744312
